# From PMC7819943, “Rice protein-binding microarrays: a tool to detect cis-acting elements near promoter regions in rice”
# Some of the results follow.
# Biological target: T1, OsSMF1 (Oryza sativa, UniProt Q6ZLB0 1-436)
# T1 sequence: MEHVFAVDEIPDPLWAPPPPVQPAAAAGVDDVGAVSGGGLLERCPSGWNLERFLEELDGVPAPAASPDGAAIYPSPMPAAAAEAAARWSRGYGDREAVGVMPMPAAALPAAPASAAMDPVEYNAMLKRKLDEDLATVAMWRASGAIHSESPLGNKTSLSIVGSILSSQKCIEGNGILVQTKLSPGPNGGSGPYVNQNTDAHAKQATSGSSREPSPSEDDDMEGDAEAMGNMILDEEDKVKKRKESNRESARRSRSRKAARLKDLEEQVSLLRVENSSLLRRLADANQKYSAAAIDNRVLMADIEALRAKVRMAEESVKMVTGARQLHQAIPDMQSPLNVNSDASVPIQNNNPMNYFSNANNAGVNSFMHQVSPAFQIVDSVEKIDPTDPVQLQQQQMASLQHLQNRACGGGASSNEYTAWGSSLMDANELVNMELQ
# Assay: protein-binding microarray (RPBM); PBS, 2% BSA, 51.3 ng/ul salmon testes DNA, 50 uM zinc acetate, 200 nM TF, 25 C, 1 h; high values mean tight binding
# Conditions: protein: recombinant; tags: N-terminal polyhistidine and DsRed monomer fusion (pET32a); chain copies: 2; label: CyDye5-dUTP incorporated in the synthesized complementary strand; 3' TTTTT single-stranded linker to array surface; dsDNA, one strand shown
# Method in brief: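 The binding signal is fluorescence intensity per array feature (arbitrary units). Readings came from an Axon 4000B scanner after a washed, 2% BSA-blocked, double-stranded custom Agilent array had been incubated for 1 h at 25 °C with 200 nM protein and 50 µM zinc acetate. The protein was a Ni–NTA-purified transcription factor fused N-terminally to polyhistidine and DsRed, expressed in E. coli BL21-CodonPlus.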
row,Sequence,binding signal
1,TTGTCACGGGTTTTGGTTAGTCATATTTGATTACTCGTAACGGAGTCACCTAGTGCAG,4030 fluorescence intensity (a.u.)
2,CACTATTTTAGCTTATGTGACACCTATGAGACTATGCTTTCGGAGTCACCTAGTGCAG,3430 fluorescence intensity (a.u.)
3,GCCAACACGCAAGGAAAATGACTTGGCCACAGCCACACACCGGAGTCACCTAGTGCAG,4220 fluorescence intensity (a.u.)
4,GGCGACGAACATGTCCTGGTGGTTGTTGTCACGTCATGTCCGGAGTCACCTAGTGCAG,6070 fluorescence intensity (a.u.)
5,CATATAACTTATGTTACATATTTTAATTATTGCTCTAGGTCGGAGTCACCTAGTGCAG,3520 fluorescence intensity (a.u.)
6,TCCGTTTCGTATTGTAAAACTTTCTAGTATTGCCCACATTCGGAGTCACCTAGTGCAG,19300 fluorescence intensity (a.u.)
7,CATGGCCACGTCCGCCACCTTGCGGATGCCGGAGGGTAAGCGGAGTCACCTAGTGCAG,41400 fluorescence intensity (a.u.)
8,GCATTGTATAAATAACTATAATCGTTATCATGATAACATTCGGAGTCACCTAGTGCAG,32800 fluorescence intensity (a.u.)
9,GAGTCCATCCCTATCCTGTCCAAGTCACCCAATCATCATCCGGAGTCACCTAGTGCAG,4240 fluorescence intensity (a.u.)
10,TCGCATCACGCCACGTCACCCCTCTGACGCGCGCGACCCCCGGAGTCACCTAGTGCAG,32000 fluorescence intensity (a.u.)
11,AAGCCGGCCGGCCGGCCAGTCAGTGACATGTATGTTCATGCGGAGTCACCTAGTGCAG,3400 fluorescence intensity (a.u.)
12,CGTAAGTAAGGTGTACGCGTGTAATCGGATCAGCGGGTAACGGAGTCACCTAGTGCAG,3200 fluorescence intensity (a.u.)
13,AGGCCACACGAGATAGGCTGCAACTGCAAGGGCCTGTGCCCGGAGTCACCTAGTGCAG,12700 fluorescence intensity (a.u.)
14,ATTTTACTAGCTGATAAGTAAGCGGAAAGATGAGGCTCTTCGGAGTCACCTAGTGCAG,25300 fluorescence intensity (a.u.)
15,TTGATTATTTCAGTTCATGACTCGGCATAGCACCAGCAAACGGAGTCACCTAGTGCAG,5530 fluorescence intensity (a.u.)
16,GTTTGCACTAATTTGACACGAACACTTATTTCACACGTGGCGGAGTCACCTAGTGCAG,7940 fluorescence intensity (a.u.)
17,CCTTTCCGATTACGTGTTGGACCTTGACCCTAGGCCATATCGGAGTCACCTAGTGCAG,49700 fluorescence intensity (a.u.)
18,CGTGTCGTGGAACACCGTCATCTCCGCGCTGGCGCGGTCGCGGAGTCACCTAGTGCAG,5630 fluorescence intensity (a.u.)
19,AATCTTTTGAAGCACCGATTACTCACCTCTCCTCCGACAACGGAGTCACCTAGTGCAG,3240 fluorescence intensity (a.u.)
20,GTTTATACCTATAAAGTTTCTATATTAAAAGTTTACGTGTCGGAGTCACCTAGTGCAG,3490 fluorescence intensity (a.u.)
21,CCATGAAAGTACTCTCACTGACAGGTGGCCCCACACTCTGCGGAGTCACCTAGTGCAG,3840 fluorescence intensity (a.u.)

# Part of the list above in a different format.
row	Sequence	binding signal
10	TCGCATCACGCCACGTCACCCCTCTGACGCGCGCGACCCCCGGAGTCACCTAGTGCAG	32000 fluorescence intensity (a.u.)
11	AAGCCGGCCGGCCGGCCAGTCAGTGACATGTATGTTCATGCGGAGTCACCTAGTGCAG	3400 fluorescence intensity (a.u.)
12	CGTAAGTAAGGTGTACGCGTGTAATCGGATCAGCGGGTAACGGAGTCACCTAGTGCAG	3200 fluorescence intensity (a.u.)
13	AGGCCACACGAGATAGGCTGCAACTGCAAGGGCCTGTGCCCGGAGTCACCTAGTGCAG	12700 fluorescence intensity (a.u.)
14	ATTTTACTAGCTGATAAGTAAGCGGAAAGATGAGGCTCTTCGGAGTCACCTAGTGCAG	25300 fluorescence intensity (a.u.)
15	TTGATTATTTCAGTTCATGACTCGGCATAGCACCAGCAAACGGAGTCACCTAGTGCAG	5530 fluorescence intensity (a.u.)
16	GTTTGCACTAATTTGACACGAACACTTATTTCACACGTGGCGGAGTCACCTAGTGCAG	7940 fluorescence intensity (a.u.)
17	CCTTTCCGATTACGTGTTGGACCTTGACCCTAGGCCATATCGGAGTCACCTAGTGCAG	49700 fluorescence intensity (a.u.)
18	CGTGTCGTGGAACACCGTCATCTCCGCGCTGGCGCGGTCGCGGAGTCACCTAGTGCAG	5630 fluorescence intensity (a.u.)
19	AATCTTTTGAAGCACCGATTACTCACCTCTCCTCCGACAACGGAGTCACCTAGTGCAG	3240 fluorescence intensity (a.u.)
20	GTTTATACCTATAAAGTTTCTATATTAAAAGTTTACGTGTCGGAGTCACCTAGTGCAG	3490 fluorescence intensity (a.u.)

# Following part:

row,Sequence,binding signal
1,TTCTGTACATTTAGCTACCCACGCGTTCAGGCTACAACCTCGGAGTCACCTAGTGCAG,3160 fluorescence intensity (a.u.)
2,CCCTTTATCGGAACACATATCCTAATGACGTCATCAAGCGCGGAGTCACCTAGTGCAG,26100 fluorescence intensity (a.u.)
3,GGCGAAGAATGCAGACATGACACGGACCCATCGACGCGGGCGGAGTCACCTAGTGCAG,3340 fluorescence intensity (a.u.)
4,GCGAAGCAACATGCTGCTGCTCAAGAGGAGGAAGATGGTGCGGAGTCACCTAGTGCAG,3350 fluorescence intensity (a.u.)
5,AACTCGCTCTCCGGGTAGAGTACACGTCACCACCCGACTCCGGAGTCACCTAGTGCAG,17100 fluorescence intensity (a.u.)
6,AATAGATTTCCTTCACTCGCCCGTGTCTTTAAAACCGGGTCGGAGTCACCTAGTGCAG,3390 fluorescence intensity (a.u.)
7,GCCACATTATTTGGAGACAAACTCAGTGCCGATGTCAGCGCGGAGTCACCTAGTGCAG,4600 fluorescence intensity (a.u.)
8,TCCTTAAATATCGGGCAATCATCGTCACACACAGTGACAGCGGAGTCACCTAGTGCAG,4610 fluorescence intensity (a.u.)
9,TTACGCGCAATCGCATCGCTACCACGAAAACTCCACAAGACGGAGTCACCTAGTGCAG,3160 fluorescence intensity (a.u.)
10,AGATAGTCATCTAACCTAGGGTACACGTAGATCCTCACAACGGAGTCACCTAGTGCAG,7830 fluorescence intensity (a.u.)
11,CACATGAACTCACTGAGTCACTGGGTGGTTTGTTGCATTGCGGAGTCACCTAGTGCAG,6080 fluorescence intensity (a.u.)
12,ATTTTGACTGATGTGACGTTTGCGTGGCTGGTTTGATTAGCGGAGTCACCTAGTGCAG,4770 fluorescence intensity (a.u.)
13,GCACACGATACGACACGTCCAGGTCAGGAGAGGCTCCAACCGGAGTCACCTAGTGCAG,20700 fluorescence intensity (a.u.)
14,ACTTGCGCGCGTCGTTACCCGTTTTGCCCTGACGCGTGCACGGAGTCACCTAGTGCAG,5170 fluorescence intensity (a.u.)
15,ACGACATTAATGCTTTCCCCACATTTCTCTCTCAGACTCTCGGAGTCACCTAGTGCAG,17400 fluorescence intensity (a.u.)
16,ACCCGGTTGGCTGTTGCCAGCTACCACTTCGACCTGAGCGCGGAGTCACCTAGTGCAG,3520 fluorescence intensity (a.u.)
17,CGCCAGCCCAGCCGCTGTGACGTGCTCACTGTTTCGGCGGCGGAGTCACCTAGTGCAG,7190 fluorescence intensity (a.u.)
18,TTTCATGGATAACACGTGCACTACATTCTTGCCTGTTCCACGGAGTCACCTAGTGCAG,4800 fluorescence intensity (a.u.)
19,CCAGCCGCCATCCCGGCTTTGACGACCACCATCCGGAGCACGGAGTCACCTAGTGCAG,31500 fluorescence intensity (a.u.)
20,GAGCCGGGAGGGACTTGTGGGGCCCACGTGGGCCCACCAACGGAGTCACCTAGTGCAG,4150 fluorescence intensity (a.u.)
21,GCCAGCACCTACTGGCCCCACATCCAGGGGCATTCATATGCGGAGTCACCTAGTGCAG,4500 fluorescence intensity (a.u.)
